The text below walks through data of US20250042935 (published 2025).

The nature of this data set: Fmoc solid-phase peptide synthesis; pre-loaded Fmoc-amino acid Wang resins (~0.34 mmol/g loading); DIC, oxyma, 2,4,6-collidine. Particulars: late stage modification step; TABLE-US-00006 r42.

Several values for one entry are separate records, joined by “and”; a condition that tells them apart may be missing. Equal values may be shown once.

For “SFSGFGSPLDRLSAGSVDHKGKQRKVVDHPKRRFGIPMDRIGRNRLSNSR”, the step yield was 57% and 66%.
